This is an account of results in doi:10.1101/2025.11.07.687077.

By UniProt entry, the sequences of proteins in these tests, tags left out. Residues count along the entry.
UniProt P43407, residues 19-145: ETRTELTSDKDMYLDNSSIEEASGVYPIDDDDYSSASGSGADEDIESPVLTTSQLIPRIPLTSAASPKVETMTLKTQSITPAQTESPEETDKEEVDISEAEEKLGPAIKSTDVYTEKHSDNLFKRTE
UniProt P04202, residues 279-390: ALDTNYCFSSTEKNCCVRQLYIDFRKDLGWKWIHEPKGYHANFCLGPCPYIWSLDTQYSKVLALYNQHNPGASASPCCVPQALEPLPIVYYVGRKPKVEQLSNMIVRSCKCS
UniProt P40224, residues 22-93: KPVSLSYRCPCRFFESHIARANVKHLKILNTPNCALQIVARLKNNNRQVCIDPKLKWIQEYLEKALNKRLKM

The assay has as its target purified murine syndecan-2 ectodomain (murine) (UniProt P43407). As to the kind of experiment: SPR.

These are yes or no findings as the source states them, for the method shown. Some results given as binding are weak or reduced against the parent protein; the word gives no strength.

“transforming growth factor beta 1 (TGF-β1) (from UniProt P04202 279-390) (ligand)”: the binding result is on record as “binds”. With “stromal derived factor-1 (CXCL12) (from UniProt P40224 22-93) (ligand)”, the binding entry was “binds”.
